From PubChem BioAssay AID248 (DTP/NCI, 2004)
The list is a part of this screen's results and no random one: it gathers tests that were run many times, whatever their T/C, doses with no T/C, and many T/C values between a quarter and a half above the control. Further doses and runs are listed elsewhere. T/C is the treated group as % of the vehicle group. Some entries give survivors of the animals treated and no T/C: the source files T/C as zero there, which appears to mark a toxic dose or a test without result, not a measured value. Some doses without a T/C left all or most animals alive at the check, yet need not have been tolerated: the source hardly ever lists a survival T/C far under the control, and the zero likely stands for such cases as well. Survivors were counted at the toxicity check, usually on the fifth day, unless a day is given; later deaths do not show. Schedule codes are those of the source, read here as Q, the interval in days (D) or hours (H), X, the number of doses. Where survival is the endpoint, the PubChem record calls one and a half times the control and up active, and a quarter to a half above the control has no call in these data; cut-offs in other NCI protocols can differ. Some entries hold several experiments; the results are listed from low to high. Some T/C values are followed by the survivors on the day toxicity was checked, most often the fifth; without a count, all were alive then.

System: L1210 leukemia ip in BDF1 mice, survival T/C
Assay: NCI In Vivo Anticancer Drug Screen. Data for tumor model L1210 Leukemia (intraperitoneal) in B6D2F1 (BDF1) mice
Conditions: T/C endpoint: mean survival time, higher T/C = longer survival
[1] = dose: 10.0 mg/kg/injection, schedule: Q01DX009 (ip), vehicle: saline
[2] = dose: 10.6 mg/kg/injection, schedule: Q04DX003 (ip), vehicle: saline
[3] = dose: 16.0 mg/kg/injection, schedule: Q01DX001 (ip), vehicle: saline

Compound: OC(C1CO1)C(O)C1CO1 (stereo not drawn)
- T/C (dose: 0.25 mg/kg/injection, schedule: Q03HX024 (ip), vehicle: saline): 127 % of control
- T/C (dose: 0.5 mg/kg/injection, schedule: Q03HX016 (ip), vehicle: saline): 132 % of control
- T/C (dose: 0.5 mg/kg/injection, schedule: Q03HX024 (ip), vehicle: saline): 137 % of control [9 of 10 alive]
- T/C (dose: 0.8 mg/kg/injection, schedule: Q01DX009 (ip), vehicle: saline): 125 and 144 % of control
- T/C (dose: 1.0 mg/kg/injection, schedule: Q01DX009 (ip), vehicle: saline): 130 % of control
- T/C (dose: 1.0 mg/kg/injection, schedule: Q03HX008 (ip), vehicle: saline): 147 % of control
- T/C (dose: 1.08 mg/kg/injection, schedule: Q01DX009 (ip), vehicle: water): 128 % of control
- T/C (dose: 1.6 mg/kg/injection, schedule: Q01DX009 (ip), vehicle: saline): 127 % of control
- T/C (dose: 1.8 mg/kg/injection, schedule: Q01DX009 (ip), vehicle: saline): 141 % of control
- T/C (dose: 1.8 mg/kg/injection, schedule: Q01DX009 (ip), vehicle: water): 147 % of control
- T/C (dose: 2.0 mg/kg/injection, schedule: Q01DX009 (ip), vehicle: saline, evaluated on day 30): 141, 150, 157 % of control
- T/C (dose: 2.0 mg/kg/injection, schedule: Q01DX009 (ip), vehicle: saline, evaluated on day 60): 159 % of control
- T/C (dose: 2.0 mg/kg/injection, schedule: Q01DX009 (oral), vehicle: saline): 126 % of control
- T/C (dose: 2.0 mg/kg/injection, schedule: Q01DX009 (sc), vehicle: saline): 127 % of control
- T/C (dose: 2.0 mg/kg/injection, schedule: Q04DX003 (ip), vehicle: saline, evaluated on day 30): 130 % of control
- T/C (dose: 2.0 mg/kg/injection, schedule: Q04DX003 (ip), vehicle: saline, evaluated on day 60): 141 % of control
- T/C (dose: 2.2 mg/kg/injection, schedule: Q01DX001 (ip), vehicle: saline): 128 and 130 % of control
- T/C (dose: 4.0 mg/kg/injection, schedule: Q01DX001 (ip), vehicle: saline): 134 % of control
- T/C (dose: 4.0 mg/kg/injection, schedule: Q01DX009 (oral), vehicle: saline): 135 % of control
- T/C (dose: 4.0 mg/kg/injection, schedule: Q01DX009 (sc), vehicle: saline): 128 % of control
- survivor count (dose: 4.0 mg/kg/injection, schedule: Q03HX008 (ip), vehicle: saline): 1 of 10
- survivor count (dose: 4.0 mg/kg/injection, schedule: Q03HX016 (ip), vehicle: saline): 2 of 10
- survivor count (dose: 4.0 mg/kg/injection, schedule: Q03HX024 (ip), vehicle: saline): 6 of 10
- T/C (dose: 4.6 mg/kg/injection, schedule: Q01DX001 (ip), vehicle: saline): 145 % of control
- T/C (dose: 5.0 mg/kg/injection, schedule: Q01DX001 (ip), vehicle: saline): 149 % of control
- T/C (dose: 5.0 mg/kg/injection, schedule: Q01DX009 (ip), vehicle: saline): 149 % of control
- T/C (dose: 6.25 mg/kg/injection, schedule: Q01DX009 (ip), vehicle: water, evaluated on day 5): 142 % of control
- T/C (dose: 6.25 mg/kg/injection, schedule: Q01DX009 (ip), vehicle: water, evaluated on day 30): 142 % of control
- survivor count (dose: 6.4 mg/kg/injection, schedule: Q01DX009 (ip), vehicle: saline): 6 of 6
- survivor count (dose: 7.0 mg/kg/injection, schedule: Q01DX009 (ip), vehicle: saline): 6 of 6
- T/C (dose: 7.5 mg/kg/injection, schedule: Q01DX001 (ip), vehicle: saline): 133 % of control
- T/C (dose: 8.0 mg/kg/injection, schedule: Q01DX001 (sc), vehicle: saline): 125 % of control
- survivor count (dose: 8.0 mg/kg/injection, schedule: Q01DX009 (ip), vehicle: saline): 10 of 10
- survivor count (dose: 8.0 mg/kg/injection, schedule: Q01DX009 (oral), vehicle: saline): 7 of 10
- survivor count (dose: 8.0 mg/kg/injection, schedule: Q01DX009 (sc), vehicle: saline): 5 of 10
- survivor count (dose: 8.0 mg/kg/injection, schedule: Q03HX008 (ip), vehicle: saline): 1 of 10
- survivor count (dose: 8.0 mg/kg/injection, schedule: Q03HX016 (ip), vehicle: saline): 0 of 10
- T/C (dose: 8.0 mg/kg/injection, schedule: Q04DX003 (ip), vehicle: saline): 130 % of control
- survivor count (dose: 8.4 mg/kg/injection, schedule: Q01DX009 (ip), vehicle: water): 8 of 8
- T/C (dose: 10.0 mg/kg/injection, schedule: Q01DX001 (ip), vehicle: saline, evaluated on day 30): 146 and 221 % of control
- T/C (dose: 10.0 mg/kg/injection, schedule: Q01DX001 (ip), vehicle: saline, evaluated on day 60): 148, 195, 209, 210, 211, 224 % of control
- T/C [1]: 142 % of control
- survivor count [1]: 3 of 6
- T/C (dose: 10.0 mg/kg/injection, schedule: Q04DX003 (ip), vehicle: saline): 145 % of control
- survivor count (dose: 10.6 mg/kg/injection, schedule: Q01DX009 (ip), vehicle: saline): 5 of 6
- T/C [2]: 134 % of control
- survivor count [2]: 4 of 6
- T/C (dose: 10.6 mg/kg/injection, schedule: Q08DX002 (ip), vehicle: saline): 149 % of control [5 of 6 alive]
- T/C (dose: 12.5 mg/kg/injection, schedule: Q01DX001 (ip), vehicle: saline): 150, 166, 290, 293, 295, 378 % of control
- survivor count (dose: 14.0 mg/kg/injection, schedule: Q01DX001 (ip), vehicle: saline): 3 of 6
- survivor count (dose: 14.0 mg/kg/injection, schedule: Q01DX009 (ip), vehicle: water): 7 of 8
- T/C (dose: 15.0 mg/kg/injection, schedule: Q01DX001 (ip), vehicle: saline, evaluated on day 30): 201 % of control
- T/C (dose: 15.0 mg/kg/injection, schedule: Q01DX001 (ip), vehicle: saline, evaluated on day 60): 228, 240, 370, 373, 387, 395 % of control
- survivor count (dose: 15.0 mg/kg/injection, schedule: Q01DX009 (ip), vehicle: saline): 6 of 6
- T/C [3]: 126 % of control
- survivor count [3]: 4 of 6
- survivor count (dose: 16.0 mg/kg/injection, schedule: Q01DX001 (oral), vehicle: saline): 3 of 10
- survivor count (dose: 16.0 mg/kg/injection, schedule: Q01DX009 (ip), vehicle: saline): 5 of 6
